From patent publication US12083168B2, “Treatment and detection of inherited neuropathies and associated disorders” (University of Miami, priority 2019, dated 2024)
For at least one compound, name, drawing or mass did not settle the structure.

Assays:
[1] = system: patient fibroblasts lacking functional SORD; experiment: Intracellular sorbitol level in patient fibroblasts (UPLC-MS/MS, normalised to protein content); format: cell-based, human; settings: 72 hrs, Epalrestat 100 μM, Ranirestat 10 μM, vs DMSO
[2] = system: Sodh2MB01265/MB01265 mutant flies; experiment: Age-dependent synaptic degeneration in the lamina (vacuoles, BRP immunostaining, confocal microscopy); format: in vivo, Drosophila melanogaster
Protocol: FIGS. 4A-G. Treatment with aldose reductase inhibitors Epalrestat and Ranirestat decrease sorbitol level and restore function. (FIG. 4A) Intracellular sorbitol level as measured by UPLC and normalised to protein content in fibroblasts from healthy controls (n=5, circle dots) and patients carrying biallelic nonsense mutations in SORD (n=5, square dots) after three days of treatment with Epalrestat 100 μM, Ranirestat 10 μM or DMSO. (FIG. 4B) Sorbitol level as measured by UPLC from brain/head homogenates and normalised to protein concentration from wild-type (yw, empty circle dots), Sodh2^MB01265/MB01265 (full circle dots) and neuron-specific knock-down of Sodh1 and […] (square dots) Drosophilae at 10 days after eggs enclosure. Sodh2 Mimic and Sodh1 and Soh2 RNAi Drosophilae were fed with either 80 μM Epalrestat, 80 μM Ranirestat or DMSO. The graphs show the mean±s.d. A two-tailed t-test was performed to compare sorbitol level. Statistical significance is indicated as *, ** or *** if P-value <0.05, <0.01 or <0.001, respectively, unless otherwise specified. All experiments were repeated independently twice with similar results. (FIG. 4C) Locomotor activity of control flies (yw) feeding with DMSO, Sodh2^MB01265/MB01265 flies feeding with DMSO, 80 μM Epalrestat, or 80 μM Ranirestat (n=10 in each group). Data are presented as mean±s.d. Statistical analysis was performed using Two-Way ANOVA followed by post-hoc Tukey's multiple comparison test. *P<0.05, ***P<0.001 (FIGS. 4D-4F) Laminae of Sodh2^MB01265/MB01265 homozygous flies at 10 DAE and 40 DAE fed with DMSO (FIG. 4D), 80 μM Epalrestat (FIG. 4E), or 80 μM Ranirestat (FIG. 4F). Arrowheads indicate the lamina vacuoles. Boxes indicate higher magnification areas of the lamina. The intensity of BRP is indicated. […] (FIG. 4G) Quantification of the vacuole number, size, and BRP intensity of (FIGS. 4D-4F). n=3. […]
Brain dissection and staining were carried out as previously described (Brazill et al., J Vis Exp. 2018; (138)). […] Images were processed and analyzed using FluoView 10-ASW (Olympus).

[3] = Sodh2MB01265/MB01265 flies, at both 10 and 40 DAE, 80 μM in food

## CC(/C=C1\SC(=S)N(CC(=O)O)C1=O)=C\c1ccccc1 [Epalrestat]
[1]
  intracellular sorbitol level: significant reduction of sorbitol to a level comparable to controls
[2]; [3]
  localization of synaptic cytomatrix protein BRP: restored the localization of synaptic cytomatrix protein BRP
  number of lamina vacuoles: reduced the number of vacuoles
[2]; Sodh2MB01265/MB01265 mutant flies, drug feeding
  age-dependent synaptic defects: restored the age-dependent synaptic defects
